According to the supplement of paper PMC10849652:
Some of the results follow.

Sequences of proteins named here, by UniProt entry; tags and fusion partners are left off. A change or cut given only in a name is not applied to a line headed by its entry.
UniProt Q08431: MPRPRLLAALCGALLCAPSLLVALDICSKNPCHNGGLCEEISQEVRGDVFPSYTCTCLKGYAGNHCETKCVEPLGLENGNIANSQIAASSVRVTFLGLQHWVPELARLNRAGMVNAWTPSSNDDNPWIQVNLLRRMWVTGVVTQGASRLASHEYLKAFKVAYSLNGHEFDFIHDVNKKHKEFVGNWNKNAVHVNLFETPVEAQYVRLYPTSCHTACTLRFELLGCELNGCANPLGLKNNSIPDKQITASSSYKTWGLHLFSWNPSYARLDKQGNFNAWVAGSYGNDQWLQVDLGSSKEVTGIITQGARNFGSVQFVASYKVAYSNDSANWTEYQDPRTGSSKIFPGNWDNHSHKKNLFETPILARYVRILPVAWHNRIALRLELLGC
UniProt Q96GW9: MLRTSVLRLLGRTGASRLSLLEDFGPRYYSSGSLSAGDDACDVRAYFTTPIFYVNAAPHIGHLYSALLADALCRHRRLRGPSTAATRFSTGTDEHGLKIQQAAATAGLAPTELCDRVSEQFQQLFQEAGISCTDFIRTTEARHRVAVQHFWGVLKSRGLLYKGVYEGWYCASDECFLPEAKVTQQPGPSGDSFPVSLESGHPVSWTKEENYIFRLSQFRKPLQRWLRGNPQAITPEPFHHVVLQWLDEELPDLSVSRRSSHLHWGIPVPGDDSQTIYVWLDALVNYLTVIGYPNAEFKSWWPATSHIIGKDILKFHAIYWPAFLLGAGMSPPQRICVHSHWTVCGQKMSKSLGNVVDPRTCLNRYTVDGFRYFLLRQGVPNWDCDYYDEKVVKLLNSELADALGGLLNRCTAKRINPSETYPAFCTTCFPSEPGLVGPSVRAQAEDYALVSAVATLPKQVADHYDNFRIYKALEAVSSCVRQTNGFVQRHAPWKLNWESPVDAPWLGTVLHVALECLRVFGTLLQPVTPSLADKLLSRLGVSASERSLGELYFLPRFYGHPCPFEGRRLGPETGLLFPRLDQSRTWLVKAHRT
UniProt Q9ULK4: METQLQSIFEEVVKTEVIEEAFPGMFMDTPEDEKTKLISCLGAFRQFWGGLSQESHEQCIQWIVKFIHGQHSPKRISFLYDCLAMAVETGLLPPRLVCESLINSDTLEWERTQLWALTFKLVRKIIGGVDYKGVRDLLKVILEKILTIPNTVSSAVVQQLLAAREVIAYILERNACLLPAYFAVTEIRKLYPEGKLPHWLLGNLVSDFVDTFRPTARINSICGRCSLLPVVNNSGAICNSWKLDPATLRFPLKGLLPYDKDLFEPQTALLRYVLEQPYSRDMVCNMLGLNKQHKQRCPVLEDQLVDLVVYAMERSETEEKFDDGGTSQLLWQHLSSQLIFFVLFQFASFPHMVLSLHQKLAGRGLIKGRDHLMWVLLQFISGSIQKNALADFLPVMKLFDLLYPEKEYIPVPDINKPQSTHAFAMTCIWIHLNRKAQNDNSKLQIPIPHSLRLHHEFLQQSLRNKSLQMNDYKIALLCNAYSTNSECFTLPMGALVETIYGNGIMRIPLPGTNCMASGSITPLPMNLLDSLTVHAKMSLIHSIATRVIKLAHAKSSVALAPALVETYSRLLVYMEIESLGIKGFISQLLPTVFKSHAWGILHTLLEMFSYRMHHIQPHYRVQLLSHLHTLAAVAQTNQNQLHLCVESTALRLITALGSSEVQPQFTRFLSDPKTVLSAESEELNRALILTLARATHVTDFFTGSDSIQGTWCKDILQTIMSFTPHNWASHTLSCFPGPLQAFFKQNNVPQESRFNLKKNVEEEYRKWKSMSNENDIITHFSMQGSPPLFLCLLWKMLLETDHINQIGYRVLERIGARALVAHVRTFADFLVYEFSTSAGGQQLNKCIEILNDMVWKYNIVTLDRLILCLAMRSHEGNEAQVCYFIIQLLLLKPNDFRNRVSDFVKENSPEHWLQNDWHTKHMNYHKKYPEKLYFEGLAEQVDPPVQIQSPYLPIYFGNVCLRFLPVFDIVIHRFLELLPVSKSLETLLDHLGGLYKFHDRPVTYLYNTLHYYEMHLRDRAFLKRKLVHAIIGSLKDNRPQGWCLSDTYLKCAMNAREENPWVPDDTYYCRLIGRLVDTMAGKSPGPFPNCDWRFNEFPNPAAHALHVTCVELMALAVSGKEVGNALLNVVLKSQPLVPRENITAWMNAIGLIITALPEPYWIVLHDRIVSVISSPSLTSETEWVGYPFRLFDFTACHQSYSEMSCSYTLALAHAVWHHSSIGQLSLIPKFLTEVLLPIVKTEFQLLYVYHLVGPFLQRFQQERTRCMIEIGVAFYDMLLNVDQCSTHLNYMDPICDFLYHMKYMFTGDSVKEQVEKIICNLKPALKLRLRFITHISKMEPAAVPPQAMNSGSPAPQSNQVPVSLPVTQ
UniProt P43121, whole entry, looked up: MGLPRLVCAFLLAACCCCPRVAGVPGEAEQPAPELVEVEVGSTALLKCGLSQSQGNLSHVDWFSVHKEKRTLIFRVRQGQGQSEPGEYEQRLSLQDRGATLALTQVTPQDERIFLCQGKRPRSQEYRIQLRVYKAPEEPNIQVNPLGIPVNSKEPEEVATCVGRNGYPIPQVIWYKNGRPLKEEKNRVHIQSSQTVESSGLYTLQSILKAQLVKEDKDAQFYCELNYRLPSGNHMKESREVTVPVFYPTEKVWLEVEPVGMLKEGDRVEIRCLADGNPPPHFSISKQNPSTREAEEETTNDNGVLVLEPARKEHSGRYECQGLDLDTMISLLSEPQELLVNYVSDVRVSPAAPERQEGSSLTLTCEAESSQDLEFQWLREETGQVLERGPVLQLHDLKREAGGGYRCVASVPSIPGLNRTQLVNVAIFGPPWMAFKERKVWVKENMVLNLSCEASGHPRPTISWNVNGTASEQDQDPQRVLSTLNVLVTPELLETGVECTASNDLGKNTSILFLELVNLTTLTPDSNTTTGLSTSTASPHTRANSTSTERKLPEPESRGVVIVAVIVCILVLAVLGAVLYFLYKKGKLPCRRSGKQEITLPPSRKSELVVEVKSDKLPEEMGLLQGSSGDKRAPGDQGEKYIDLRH
UniProt Q9NVC6: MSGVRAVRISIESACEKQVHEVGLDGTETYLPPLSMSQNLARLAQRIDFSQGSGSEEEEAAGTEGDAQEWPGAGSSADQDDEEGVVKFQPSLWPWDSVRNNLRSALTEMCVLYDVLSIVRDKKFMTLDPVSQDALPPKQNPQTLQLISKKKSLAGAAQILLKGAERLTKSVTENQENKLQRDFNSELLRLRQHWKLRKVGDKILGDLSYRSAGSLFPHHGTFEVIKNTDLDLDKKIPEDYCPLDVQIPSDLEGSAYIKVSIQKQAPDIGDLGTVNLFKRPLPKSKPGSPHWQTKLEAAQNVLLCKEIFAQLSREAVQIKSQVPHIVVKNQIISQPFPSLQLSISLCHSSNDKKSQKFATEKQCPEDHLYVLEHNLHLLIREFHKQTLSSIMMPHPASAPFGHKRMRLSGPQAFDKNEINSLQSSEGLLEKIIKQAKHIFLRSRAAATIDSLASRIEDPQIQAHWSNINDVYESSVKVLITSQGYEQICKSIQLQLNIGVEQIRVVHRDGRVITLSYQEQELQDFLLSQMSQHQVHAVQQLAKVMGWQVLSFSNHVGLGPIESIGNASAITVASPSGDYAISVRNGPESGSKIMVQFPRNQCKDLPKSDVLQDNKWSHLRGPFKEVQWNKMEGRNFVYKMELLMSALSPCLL
UniProt Q96RQ3: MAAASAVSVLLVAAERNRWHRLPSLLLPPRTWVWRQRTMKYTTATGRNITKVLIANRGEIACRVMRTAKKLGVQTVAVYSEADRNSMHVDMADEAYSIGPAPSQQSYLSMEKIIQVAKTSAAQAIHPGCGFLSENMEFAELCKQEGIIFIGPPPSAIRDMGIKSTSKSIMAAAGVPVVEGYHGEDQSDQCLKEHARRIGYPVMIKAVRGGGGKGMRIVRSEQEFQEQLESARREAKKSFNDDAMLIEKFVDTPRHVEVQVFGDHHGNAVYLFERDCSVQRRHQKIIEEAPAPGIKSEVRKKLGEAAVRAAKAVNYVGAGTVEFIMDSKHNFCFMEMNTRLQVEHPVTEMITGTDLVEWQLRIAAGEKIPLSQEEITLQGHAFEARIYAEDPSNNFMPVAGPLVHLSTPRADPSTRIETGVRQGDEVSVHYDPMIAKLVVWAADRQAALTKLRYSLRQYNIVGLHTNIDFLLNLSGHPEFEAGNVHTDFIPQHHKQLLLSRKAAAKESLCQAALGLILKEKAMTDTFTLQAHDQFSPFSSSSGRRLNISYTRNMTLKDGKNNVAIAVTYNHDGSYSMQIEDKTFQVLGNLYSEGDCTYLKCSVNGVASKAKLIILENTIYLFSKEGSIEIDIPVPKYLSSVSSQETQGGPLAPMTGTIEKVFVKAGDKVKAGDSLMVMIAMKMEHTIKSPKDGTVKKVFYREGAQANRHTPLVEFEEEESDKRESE
UniProt O95983: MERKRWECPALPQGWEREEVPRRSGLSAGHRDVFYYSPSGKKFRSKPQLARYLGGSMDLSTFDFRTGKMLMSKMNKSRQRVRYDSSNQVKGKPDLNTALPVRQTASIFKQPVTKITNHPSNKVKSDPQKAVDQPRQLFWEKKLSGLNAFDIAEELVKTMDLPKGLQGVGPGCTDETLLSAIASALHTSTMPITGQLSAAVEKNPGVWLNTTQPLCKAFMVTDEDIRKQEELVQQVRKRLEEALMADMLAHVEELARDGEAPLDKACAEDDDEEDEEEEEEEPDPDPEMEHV
UniProt P23368: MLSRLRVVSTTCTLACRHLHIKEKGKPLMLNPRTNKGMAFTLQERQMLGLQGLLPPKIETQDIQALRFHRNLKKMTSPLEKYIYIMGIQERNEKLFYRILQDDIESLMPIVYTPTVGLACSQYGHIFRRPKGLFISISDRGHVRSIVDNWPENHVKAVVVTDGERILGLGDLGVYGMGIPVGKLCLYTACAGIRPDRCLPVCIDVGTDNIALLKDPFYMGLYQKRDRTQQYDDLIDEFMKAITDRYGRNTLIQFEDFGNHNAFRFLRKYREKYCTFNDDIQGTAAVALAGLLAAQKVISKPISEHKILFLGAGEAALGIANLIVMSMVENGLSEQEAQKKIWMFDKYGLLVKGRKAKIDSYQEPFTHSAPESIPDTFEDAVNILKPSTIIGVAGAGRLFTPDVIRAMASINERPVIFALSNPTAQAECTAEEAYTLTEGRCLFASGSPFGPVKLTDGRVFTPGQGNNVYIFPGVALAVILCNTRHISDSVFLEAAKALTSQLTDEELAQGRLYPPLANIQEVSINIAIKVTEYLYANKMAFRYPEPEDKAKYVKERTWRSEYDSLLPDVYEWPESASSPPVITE
UniProt Q14566: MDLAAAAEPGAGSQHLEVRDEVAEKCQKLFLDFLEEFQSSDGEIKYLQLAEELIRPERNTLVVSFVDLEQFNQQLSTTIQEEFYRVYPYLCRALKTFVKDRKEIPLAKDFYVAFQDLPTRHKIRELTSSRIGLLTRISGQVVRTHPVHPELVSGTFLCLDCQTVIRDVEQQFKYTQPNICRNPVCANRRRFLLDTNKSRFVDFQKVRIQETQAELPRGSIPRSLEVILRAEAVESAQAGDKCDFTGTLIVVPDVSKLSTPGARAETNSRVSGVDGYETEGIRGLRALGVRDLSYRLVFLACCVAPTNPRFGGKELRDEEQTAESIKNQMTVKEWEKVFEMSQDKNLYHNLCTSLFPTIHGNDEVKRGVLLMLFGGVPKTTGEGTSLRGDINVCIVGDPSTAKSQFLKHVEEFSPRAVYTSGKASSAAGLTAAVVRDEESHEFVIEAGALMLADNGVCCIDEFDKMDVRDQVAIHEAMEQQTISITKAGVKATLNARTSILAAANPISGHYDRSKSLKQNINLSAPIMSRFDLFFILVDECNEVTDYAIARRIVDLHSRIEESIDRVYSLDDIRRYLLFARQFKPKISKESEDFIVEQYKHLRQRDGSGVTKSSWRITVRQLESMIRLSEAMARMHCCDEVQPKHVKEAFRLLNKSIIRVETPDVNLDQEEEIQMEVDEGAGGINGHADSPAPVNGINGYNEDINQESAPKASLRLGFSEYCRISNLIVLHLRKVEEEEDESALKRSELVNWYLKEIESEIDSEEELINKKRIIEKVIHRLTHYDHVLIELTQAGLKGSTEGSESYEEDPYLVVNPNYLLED
UniProt Q96PE7: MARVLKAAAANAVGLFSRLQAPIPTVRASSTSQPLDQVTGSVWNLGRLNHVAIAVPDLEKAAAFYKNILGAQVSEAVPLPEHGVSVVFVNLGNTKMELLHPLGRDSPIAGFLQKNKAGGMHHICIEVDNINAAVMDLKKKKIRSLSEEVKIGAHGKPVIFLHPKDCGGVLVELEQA
UniProt Q9NRN9: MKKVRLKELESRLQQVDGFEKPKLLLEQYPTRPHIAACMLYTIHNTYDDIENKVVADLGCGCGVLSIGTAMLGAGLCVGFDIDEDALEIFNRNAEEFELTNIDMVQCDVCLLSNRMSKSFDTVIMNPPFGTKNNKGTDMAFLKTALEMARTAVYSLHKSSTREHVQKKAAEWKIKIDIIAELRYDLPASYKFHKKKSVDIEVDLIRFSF

What was measured:
Test in all cases: log2 fold change, soluble protein after heating vs DMSO (PISA); higher = thermal stabilisation; K562 cells, 10 uM, 30 min; active = over 0.2 and 3.5 SD of the protein, either way, in both replicates (recomputed)
[1] = compound: NC(=O)Nc1cc(-c2cccc(F)c2)sc1C(=O)N[C@H]1CCCNC1
In short: (§1)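 Thermal stability values are relative to control samples and come from duplicates. They are expressed as log2 fold changes. For measurement, K562 cells (2×10^6 cells/mL) received 10 μM compound for 30 min, and aliquots were heated for 3 min over 48°C-58°C, pooled, and extracted at 4°C in PBS with 0.5% NP-40. Soluble protein, the supernatant after 21,000xg for 90 min, was quantified by TMTpro 16plex LC-MS/MS with equalised channel sums.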

[2] = compound: NC(=O)c1cnc(N[C@@H]2CCCC[C@@H]2N)nc1Nc1cccc(-n2nccn2)c1
In short: as §1

[3] = compound: NC1(c2ccc(-c3nc4ccn5c(=O)[nH]nc5c4cc3-c3ccccc3)cc2)CCC1
In short: as §1

[4] = compound: NCC(=O)Nc1ccc(-n2nc(C(F)(F)F)cc2-c2ccc3c(ccc4ccccc43)c2)cc1
In short: as §1

entinostat = compound: Nc1ccccc1NC(=O)c1ccc(CNC(=O)OCc2cccnc2)cc1 [entinostat]
In short: as §1

vorinostat = compound: O=C(CCCCCCC(=O)Nc1ccccc1)NO [vorinostat]
In short: as §1

citarinostat = compound: O=C(CCCCCCNC(=O)c1cnc(N(c2ccccc2)c2ccccc2Cl)nc1)NO [citarinostat]
In short: as §1

silmitasertib = compound: O=C(O)c1ccc2c(c1)nc(Nc1cccc(Cl)c1)c1ccncc12 [silmitasertib]
In short: as §1

[5] = compound: O=C1NC(=O)C(c2cnc3ccccn23)=C1c1cn2c3c(cc(F)cc13)CN(C(=O)N1CCCCC1)CC2
In short: as §1

[6] = compound: c1cc(OCCN2CCCCC2)cc(-c2n[nH]c3ccc(-c4nnc[nH]4)cc23)c1
In short: as §1

Measured: log2 fold change

MFGE8 (UniProt Q08431)
inactive: [1] -0.163 | [2] -0.058 | [3] 0.049 | [4] 0.125 | entinostat -0.082 | vorinostat 0.03 | citarinostat -0.036 | silmitasertib 0.117 | [5] 0.007 | [6] -0.029

MED15 (UniProt Q96RN5)
inactive: [1] 0.046 | [2] -0.089 | [3] -0.013 | [4] -0.055 | entinostat -0.009 | vorinostat 0.012 | citarinostat 0.011 | silmitasertib 0.009 | [5] -0.017 | [6] -0.073

MARS2 (UniProt Q96GW9)
inactive: [1] 0.013 | [2] 0.009 | [3] -0.012 | [4] 0.041 | entinostat -0.01 | vorinostat 0.033 | citarinostat 0.041 | silmitasertib -0.028 | [5] -0.044 | [6] -0.02

MATR3 (UniProt P43243)
inactive: [1] 0.155 | [2] 0.13 | [3] -0.171 | [4] -0.269 | entinostat 0.011 | vorinostat 0.021 | citarinostat -0.082 | silmitasertib 0.203 | [5] 0.127 | [6] -0.048

MED23 (UniProt Q9ULK4)
inactive: [1] 0.033 | [2] -0.006 | [3] -0.066 | [4] 0.024 | entinostat 0.089 | vorinostat 0.069 | citarinostat 0.041 | silmitasertib 0.021 | [5] 0.03 | [6] -0.14

MEMO1 (UniProt Q9Y316)
inactive: [1] 0.017 | [2] -0.052 | [3] -0.117 | [4] 0.023 | entinostat -0.015 | vorinostat 0.067 | citarinostat 0.022 | silmitasertib 0 | [5] -0.043 | [6] 0.021

MDH2 (UniProt P40926)
inactive: [1] 0.011 | [2] 0.018 | [3] 0.052 | [4] 0.024 | entinostat -0.025 | vorinostat -0.067 | citarinostat 0.014 | silmitasertib -0.015 | [5] -0.008 | [6] 0.037

MCAM (UniProt P43121)
inactive: [1] -0.008 | [2] 0.036 | [3] 0.059 | [4] -0.021 | entinostat -0.013 | vorinostat -0.022 | citarinostat 0.03 | silmitasertib -0.011 | [5] -0.054 | [6] -0.028

MED17 (UniProt Q9NVC6)
inactive: [1] 0.068 | [3] 0.049 | [4] -0.034 | entinostat -0.128 | vorinostat 0.045 | citarinostat 0.014 | silmitasertib 0.074 | [5] 0.112 | [6] 0.126
active: [2] -0.33

MCAT (UniProt Q8IVS2)
inactive: [1] 0.046 | [2] 0.068 | [3] 0.137 | [4] 0.056 | entinostat -0.047 | vorinostat 0.005 | citarinostat -0.035 | silmitasertib 0.025 | [5] 0.18 | [6] -0.044

Pulled one by one from above (2):
MCAM (UniProt P43121)
inactive: [1] -0.008 | [2] 0.036 | [3] 0.059 | [4] -0.021 | entinostat -0.013 | vorinostat -0.022 | citarinostat 0.03 | silmitasertib -0.011 | [5] -0.054 | [6] -0.028

MDH2 (UniProt P40926)
inactive: [1] 0.011 | [2] 0.018 | [3] 0.052 | [4] 0.024 | entinostat -0.025 | vorinostat -0.067 | citarinostat 0.014 | silmitasertib -0.015 | [5] -0.008 | [6] 0.037

More results follow:

MCCC1 (UniProt Q96RQ3)
inactive: [1] -0.004 | [2] -0.013 | [3] -0.133 | [4] -0.026 | entinostat 0.007 | vorinostat 0.003 | citarinostat -0.171 | silmitasertib -0.052 | [5] -0.08 | [6] 0.011

METTL3 (UniProt Q86U44)
inactive: [1] 0.011 | [2] -0.034 | [3] -0.055 | [4] -0.033 | entinostat -0.017 | vorinostat 0.009 | citarinostat 0.013 | silmitasertib -0.03 | [5] -0.047 | [6] -0.013

MED4 (UniProt Q9NPJ6)
inactive: [1] 0.102 | [2] -0.008 | [3] 0.003 | [4] 0.028 | entinostat 0.019 | vorinostat -0.081 | citarinostat 0.032 | silmitasertib 0.025 | [5] -0.062 | [6] -0.08

MDC1 (UniProt Q14676)
inactive: [1] 0.115 | [2] -0.075 | [3] -0.054 | [4] 0.153 | entinostat 0.001 | vorinostat -0.164 | citarinostat 0.062 | silmitasertib -0.116 | [5] -0.026 | [6] -0.086

MECR (UniProt Q9BV79)
inactive: [1] -0.004 | [2] 0.02 | [3] 0.012 | [4] -0.052 | entinostat -0.04 | vorinostat -0.017 | citarinostat 0.046 | silmitasertib 0.017 | [5] -0.025 | [6] -0.043

MGST1 (UniProt P10620)
inactive: [1] -0.025 | [2] -0.024 | [3] -0.035 | [4] 0.163 | entinostat 0.031 | vorinostat 0.027 | citarinostat -0.065 | silmitasertib 0.036 | [5] -0.086 | [6] 0.122

MESD (UniProt Q14696)
inactive: [1] -0.013 | [2] -0.032 | [3] -0.03 | [4] 0.005 | entinostat -0.022 | vorinostat -0.05 | citarinostat 0.038 | silmitasertib 0.026 | [5] -0.033 | [6] -0.049

MFN1 (UniProt Q8IWA4)
inactive: [1] -0.072 | [2] -0.171 | [3] -0.01 | [4] -0.224 | entinostat 0.034 | vorinostat 0.021 | citarinostat 0.034 | silmitasertib 0.102 | [5] -0.009 | [6] 0.02

MGME1 (UniProt Q9BQP7)
inactive: [1] -0.068 | [2] -0.007 | [3] -0.03 | [4] 0.008 | entinostat -0.049 | vorinostat 0.029 | citarinostat 0.035 | silmitasertib -0.002 | [5] -0.053 | [6] -0.014

METTL1 (UniProt Q9UBP6)
inactive: [1] -0.063 | [2] -0.011 | [3] -0.037 | [4] 0.043 | entinostat 0.006 | vorinostat -0.03 | citarinostat 0.03 | silmitasertib -0.008 | [5] -0.024 | [6] 0.012

MBD3 (UniProt O95983)
inactive: [1] 0.096 | [2] 0.006 | [3] -0.052 | [4] -0.016 | entinostat 0.016 | vorinostat -0.039 | citarinostat 0.075 | silmitasertib 0.088 | [5] 0.036 | [6] -0.07

MCM7 (UniProt P33993)
inactive: [1] 0.009 | [2] -0.015 | [3] -0.107 | [4] -0.006 | entinostat 0.02 | vorinostat 0.029 | citarinostat 0.016 | silmitasertib -0.013 | [5] -0.006 | [6] -0.015

ME2 (UniProt P23368)
inactive: [1] -0.015 | [2] -0.034 | [3] 0.07 | [4] -0.033 | entinostat -0.013 | vorinostat 0.058 | citarinostat 0.025 | silmitasertib 0.186 | [5] -0.017 | [6] -0.093

MCM6 (UniProt Q14566)
inactive: [1] -0.038 | [2] -0.053 | [3] -0.075 | [4] -0.032 | entinostat 0 | vorinostat 0.016 | citarinostat 0.036 | silmitasertib 0.006 | [5] -0.05 | [6] -0.022

MAX (UniProt P61244)
inactive: [1] -0.013 | [2] 0.059 | [3] 0.031 | [4] 0.158 | entinostat -0.047 | vorinostat -0.188 | citarinostat -0.124 | silmitasertib -0.131 | [5] -0.049 | [6] 0.017

MEPCE (UniProt Q7L2J0)
inactive: [1] -0.085 | [2] -0.152 | [3] -0.127 | [4] -0.004 | entinostat 0.063 | vorinostat 0.107 | citarinostat 0.005 | silmitasertib 0.02 | [5] -0.019 | [6] 0.026

METTL14 (UniProt Q9HCE5)
inactive: [1] -0.029 | [2] -0.002 | [3] -0.061 | [4] 0.023 | entinostat -0.003 | vorinostat 0.002 | citarinostat 0.032 | silmitasertib 0.02 | [5] -0.083 | [6] -0.047

MCEE (UniProt Q96PE7)
inactive: [1] 0.017 | [2] -0.014 | [3] -0.005 | [4] -0.052 | entinostat 0.048 | vorinostat -0.034 | citarinostat 0.056 | silmitasertib 0.021 | [5] -0.05 | [6] -0.04

METTL5 (UniProt Q9NRN9)
inactive: [1] -0.014 | [2] 0.04 | [3] 0.016 | [4] 0.02 | entinostat -0.035 | vorinostat 0.017 | citarinostat 0.015 | silmitasertib -0.032 | [5] -0.035 | [6] -0.004
